These are yes or no findings as the source states them, for the method shown. Binding seen in cells or lysates may run through a third protein. Some entries that bind do so weakly or less than the wild type.
Biological target: Bcl-2 associated athanogene 3 (BAG3) (human) (UniProt O95817)
Test: co-IP; Lysates of HepG2 cells; primary antibody or IgG overnight at 4 °C, Protein-A/G beads, Western blot; lysis buffer 20 mM Tris-HCl, 150 mM NaCl, 2 mM EDTA, 1% NP-40

Protein sequences, listed by entry. Tags and fused reporters are not part of them. Residues count along the entry.
UniProt O95817: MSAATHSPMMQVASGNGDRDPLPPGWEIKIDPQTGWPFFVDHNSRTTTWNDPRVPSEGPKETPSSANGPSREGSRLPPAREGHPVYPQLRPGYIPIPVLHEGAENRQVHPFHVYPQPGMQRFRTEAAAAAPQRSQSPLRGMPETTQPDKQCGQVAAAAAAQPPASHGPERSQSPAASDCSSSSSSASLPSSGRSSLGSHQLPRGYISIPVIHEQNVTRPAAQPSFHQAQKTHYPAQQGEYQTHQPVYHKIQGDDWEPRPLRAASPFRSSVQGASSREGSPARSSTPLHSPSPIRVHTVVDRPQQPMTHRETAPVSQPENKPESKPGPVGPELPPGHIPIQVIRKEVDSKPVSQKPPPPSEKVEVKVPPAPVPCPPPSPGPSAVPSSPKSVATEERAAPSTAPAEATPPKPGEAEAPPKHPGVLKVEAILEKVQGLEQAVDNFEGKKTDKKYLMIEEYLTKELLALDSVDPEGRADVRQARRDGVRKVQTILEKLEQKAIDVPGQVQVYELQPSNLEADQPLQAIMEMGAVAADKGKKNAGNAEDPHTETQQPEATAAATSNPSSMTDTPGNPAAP
UniProt O94925, residues 55-669: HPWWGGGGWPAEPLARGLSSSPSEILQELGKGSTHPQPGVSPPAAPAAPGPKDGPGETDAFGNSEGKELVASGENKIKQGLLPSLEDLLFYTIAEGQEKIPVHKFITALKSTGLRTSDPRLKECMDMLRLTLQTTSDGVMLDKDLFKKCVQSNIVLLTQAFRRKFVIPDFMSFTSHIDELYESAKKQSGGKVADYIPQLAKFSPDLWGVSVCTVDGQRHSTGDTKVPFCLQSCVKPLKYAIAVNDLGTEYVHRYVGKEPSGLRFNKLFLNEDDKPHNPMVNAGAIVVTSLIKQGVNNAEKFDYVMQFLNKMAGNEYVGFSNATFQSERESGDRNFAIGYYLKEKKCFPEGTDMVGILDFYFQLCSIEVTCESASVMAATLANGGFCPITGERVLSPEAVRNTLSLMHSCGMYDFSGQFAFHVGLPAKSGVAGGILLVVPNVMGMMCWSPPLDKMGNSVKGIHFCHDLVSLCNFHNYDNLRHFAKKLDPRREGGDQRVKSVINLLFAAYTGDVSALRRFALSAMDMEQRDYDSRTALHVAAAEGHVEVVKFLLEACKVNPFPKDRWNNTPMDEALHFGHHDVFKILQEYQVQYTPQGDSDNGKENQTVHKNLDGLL

- binding: binds
Substance: glutaminase (GLS) (from UniProt O94925 55-669) (enzyme)
